One assay addresses T1, wild-type CNTFR-Fc (human, UniProt P26992 23-342).
T1 construct: also called wtCNTFR-Fc; not shown: Fc domain; captured with anti-mouse Fc antibody
T1 sequence: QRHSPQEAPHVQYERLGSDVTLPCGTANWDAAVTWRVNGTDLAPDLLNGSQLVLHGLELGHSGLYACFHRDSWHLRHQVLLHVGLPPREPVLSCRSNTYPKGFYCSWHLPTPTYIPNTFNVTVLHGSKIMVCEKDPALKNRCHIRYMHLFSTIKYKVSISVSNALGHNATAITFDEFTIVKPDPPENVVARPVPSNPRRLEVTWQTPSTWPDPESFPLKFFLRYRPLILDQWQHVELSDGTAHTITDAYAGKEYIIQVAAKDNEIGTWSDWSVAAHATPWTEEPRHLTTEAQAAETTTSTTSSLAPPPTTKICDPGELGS
The experiment in a line: sandwich ELISA, soluble CLCF1 titrated against 2 nM CNTFR-Fc, anti-mouse-Fc capture, anti-CLCF1 detection. On the procedure:
The CLCF1 variants isolated from screening were cloned into the pET28b bacterial expression plasmid and expressed and purified. […] A sandwich ELISA was performed using an anti-mouse Fc antibody as a capturing agent for wtCNTFR-Fc, followed by an anti-CLCF1 antibody as a detection agent for the bound complex. […] ELISA was also used to measure binding interactions with the gp130 and LIFR beta receptors.
To measure the solution-phase binding interaction between the CLCF1 constructs and CNTFR, different concentrations of soluble, recombinant CLCF1 variants and wtCLCF1 were incubated with 2 nM CNTFR-Fc in BPBS for 12 h at room temperature. The mixture was then added to 96-well plates coated with anti-mouse-Fc antibody for 1 h followed by washing with BPBS twice. Subsequently, the wells were incubated with 1:1000 diluted anti-CLCF1 rabbit antibody for 2 h at room temperature then washed four times with BPBS. The wells were incubated with a 1:1000 diluted HRP conjugated anti-rabbit antibody for 2 h at room temperature, and washed four times with BPBS. 1-Step Ultra TMB ELISA was used for the readout, which was measured using a plate reader (Tecan).
A general note: ELISA stands for enzyme-linked immunosorbent assay.

In assay [1] the target is T2, wild-type CNTFR-HIS (human, UniProt P26992 23-342).
T2 construct: also called wtCNTFR-HIS; HIS tagged CNTFR; not shown: HIS tag
T2 sequence: T1 sequence
Description: flow cytometry, yeast-displayed CLCF1 construct, soluble CNTFR-HIS titrated, anti-HIS Hilyte Fluor 488 detection. On the procedure:
Using equilibrium binding conditions and screened by flow cytometric sorting (FACS), high throughput screening of the CLCF1 library using wtCNTFR-HIS was performed to enrich variants showing increased CLCF1 binding. Expression signal was used to normalize CNTFR binding to distinguish high expressers from high affinity binders. Screening stringency was increased throughout sorting by decreasing the concentration of wtCNTFR-HIS incubated with the library. […] Thus a variant containing the three mutations (named FRR-CLCF1) was chosen for further characterization (FIG. 7).
Yeast displaying CLCF1 constructs were incubated with varying concentrations of CNTFR for 12 h at room temperature to reach equilibrium binding. This was followed by washing with BPBS and resuspension in PBSA with 1:500 ratio of chicken anti-c-Myc (Invitrogen) for 30 min at 4 C. Yeast were then washed and pelleted, and secondary labeling was performed on ice for 30 min using PBSA with 1:100 dilution of goat anti-chicken PE (Santa Cruz) and mouse anti-HIS Hilyte Fluor 488 (Anaspec). Then samples were washed and analyzed by flow cytometry using Accuri (BD Biosciences). Samples were analyzed on BD Bioscience software, and data were analyzed using FlowJo software. Kd values were determined by fitting to a four-parameter sigmoidal curve. Error bars represent the standard deviation of triplicate experiments.
For orientation: Flow cytometry measures light scatter and fluorescence of single cells or particles in a stream.

Assay [2] addresses T2, wild-type CNTFR-HIS. The experiment in a line: flow cytometry, yeast-displayed CLCF1 construct, soluble CNTFR titrated.

Positions count from the first letter of the chain named. Results are given in words; binding and its absence hold for the method and conditions named. Some binding calls cover weakened binding; strength is not graded here. Sequences can lack the tags named with a protein.

B1: v1 (ligand)
soluble CLCF1 variant: LNRTGDPGPGPSIQKTYDLTRYLEHQLRSLAGTYLNYLGPPFNEPDFNPPRLGAETLPRATVDLEVWRSLNDKLRLTQNYEAYSHLLCYLRGLNRRAATAELRRSLAHFCTSLQGLLGSIAGVMAALGYPLPQPLPGTEPTWTPGPAHSDFLQKMDDFWLLKELQTWLWRSAKDFNRLKKKMQPPAAAVTLHLGAHGF
B1: in the assay with wild-type CNTFR-Fc, the binding entry is given as “binds”.

B2: v3 (ligand)
CLCF1 variant displayed on yeast as Aga2p fusion with c-myc tag: B1 soluble CLCF1 variant with H148R
In the case of B2, the binding entry with wild-type CNTFR-HIS [1] and with wild-type CNTFR-Fc was “binds” each time.

B3: v2 (ligand)
CLCF1 variant displayed on yeast as Aga2p fusion with c-myc tag: B1 soluble CLCF1 variant with L86F
As for B3, the binding entry in the assay with wild-type CNTFR-HIS [1] and with wild-type CNTFR-Fc was “binds” each time.

B4: v3 (ligand)
CLCF1 variant displayed on yeast as Aga2p fusion with c-myc tag: B1 soluble CLCF1 variant with L86F, H148R, K180R
For the molecule B4, in the assay with wild-type CNTFR-HIS [2], the binding entry was “binds”.

B5: v2 (ligand)
CLCF1 variant displayed on yeast as Aga2p fusion with c-myc tag: B1 soluble CLCF1 variant with L86F, H148R, W169L
Turning to B5, the binding entry with wild-type CNTFR-HIS [2] was “binds”.

Values taken from patent US20190328837A1 (Stanford University, published 2019).
